These are yes or no findings as the source states them, for the method shown. Some binding calls cover weakened binding; strength is not graded here.

Amino acid sequences for entries named in this document (tags omitted). Residues count along the entry.
UniProt P13128, residues 25-529: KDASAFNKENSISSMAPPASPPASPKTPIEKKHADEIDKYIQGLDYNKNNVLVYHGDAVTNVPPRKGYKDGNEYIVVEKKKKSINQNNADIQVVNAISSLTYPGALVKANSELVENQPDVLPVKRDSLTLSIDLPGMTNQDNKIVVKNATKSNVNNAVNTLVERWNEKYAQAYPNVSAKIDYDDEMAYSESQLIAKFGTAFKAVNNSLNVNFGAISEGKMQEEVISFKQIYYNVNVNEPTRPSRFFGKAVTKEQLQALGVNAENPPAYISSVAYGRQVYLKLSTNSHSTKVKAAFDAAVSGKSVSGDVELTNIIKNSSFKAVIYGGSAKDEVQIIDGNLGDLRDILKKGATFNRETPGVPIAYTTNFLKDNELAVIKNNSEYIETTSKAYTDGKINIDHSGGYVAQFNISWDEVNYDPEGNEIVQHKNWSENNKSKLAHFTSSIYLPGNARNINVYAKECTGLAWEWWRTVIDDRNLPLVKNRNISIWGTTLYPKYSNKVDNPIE

Among the data in PMC6378236 are binding values, retold here.

This test concerns the target Listeriolysin O (LLO), recombinant (Listeria monocytogenes) (UniProt P13128). In words: SDS-PAGE and Western blot of oligomers and monomers; recombinant LLO incubated at 37°C for 30 minutes in acidic buffer with high concentrations of chloride, with or without baicalein; oligomers and monomers detected by Western blot, optical density by ImageJ; both purified.

In the case of “Listeriolysin O (LLO), recombinant (from UniProt P13128 25-529)”, the binding entry is recorded as “binds”.
